# Measured values: the supplement of paper PMC9254222
# Over roughly 1,100 compounds, “Wnt reporter firefly/Renilla luciferase ratio relative to plate median” has its median near 1.1; the highest 2% begin near 1.6. Only a part is listed here, and it is no random draw.
# Test system: HEK293T (UBE3A T485A transfected, BAR Wnt reporter)
# Test: Wnt reporter firefly/Renilla luciferase ratio relative to plate median (fold (linear ratio)); higher = more Wnt/beta-catenin reporter activation
# Conditions: 24 h
# Summary of the method: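 Using Fugene 6, HEK293T cells in white 384-well plates (4500 cells/well; DMEM, 10% FBS, 37°C, 5% CO2) were transfected with a BAR firefly luciferase Wnt reporter, TK-Renilla and an expression plasmid. After four hours, robots dosed the chemicals at 0.01–100 uM, and a Dual-Glo luciferase readout followed 24 h later. Per-plate median-centred firefly/Renilla ratios gave Wnt activity, while per-plate median-centred raw Renilla signals gave cell health. Four biological replicates were averaged.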
Compound,Wnt reporter firefly/Renilla luciferase ratio (concentration: 0.1 uM),Wnt reporter firefly/Renilla luciferase ratio (concentration: 1 uM),Wnt reporter firefly/Renilla luciferase ratio (concentration: 10 uM),Wnt reporter firefly/Renilla luciferase ratio (concentration: 100 uM),Wnt reporter firefly/Renilla luciferase ratio (concentration: 0.01 uM)
"N[C@@H](Cc1cc(I)c(Oc2ccc(O)c(I)c2)c(I)c1)C(=O)O [3,5,3'-Triiodothyronine]",1.17,1.11,1.03,0.213,–
N#C[C@@H]1CC(F)(F)CN1C(=O)CNC1CC2CCC(C1)N2c1ncccn1 (stereo partly drawn),0.985,0.923,0.937,0.82,–
"C=CCc1cc(S(=O)(=O)c2ccc(O)c(CC=C)c2)ccc1O [4,4'-Sulfonylbis[2-(prop-2-en-1-yl)phenol]]",0.923,0.862,0.653,–,–
c1ccc2c(c1)ccc1ccccc12 [Phenanthrene],0.724,0.903,1.02,0.9,–
O=C1O[C@H]([C@H](O)CO)C([O-])=C1O.[Na+] [Sodium erythorbate (1:1)],1.15,0.879,1.09,1.2,–
O=C1CCCCCN1 [Caprolactam],1.06,1.09,1.04,0.937,–
CCCC(=O)O [Butanoic acid],–,–,–,1.62,–
CCCCCCCCCCCCCCCCCC(=O)O [Octadecanoic acid],1.04,0.891,1.03,1.23,–
CCCCCCOC(=O)C1(O)CC2OC1(C)n1c3ccccc3c3c4c(c5c6ccccc6n2c5c31)C(=O)NC4 (stereo not drawn),1.43,0.996,1.15,0.584,1.55
O=C([O-])c1ccc2c(c1)nc(C(=O)NC1CCN(C3CC3)CC1)n2Cc1cc(-c2ccc(Cl)s2)on1.[Na+],0.874,1.09,0.986,1.08,–
O=C(O)c1cccc(N(Cc2cccnc2)c2ccc(OC(F)F)c(OC(F)F)c2)c1,0.79,0.645,0.499,0.103,–
CC1(C)CC(N=C=O)CC(C)(CN=C=O)C1 (stereo not drawn) [Isophorone diisocyanate],1.08,1.11,1.02,0.933,–
Oc1cccc(O)c1 [Resorcinol],1.09,1.23,1.13,1.34,–
C1CCC(SSC2CCCCC2)CC1 [Dicyclohexyl disulfide],0.41,0.847,0.589,0.879,–
COc1ccc(-c2ccc(=N)n(CCCC(=O)O)n2)cc1,0.879,1.04,0.861,1.43,0.802
CCC(C)(C)C1CCC(O)CC1 (stereo not drawn) [4-(2-Methylbutan-2-yl)cyclohexanol],1.08,1.21,0.956,0.821,–
CC1=CC(=O)/C(=C(/C)[O-])C(=O)O1.[Na+] [Sodium dehydroacetate],0.92,0.935,1.12,1.05,–
NS(=O)(=O)c1cc2c(cc1Cl)NCNS2(=O)=O [Hydrochlorothiazide],1.41,1.17,1.12,1.32,–
Cc1ncc([C@@H](CCCCCCc2ccc3c(n2)NCCC3)CC(=O)O)cn1,1.25,1.42,1.78,1.55,–
CCC(=C(c1ccc(O)cc1)c1ccc(OCCN(C)C)cc1)c1ccccc1 [4-Hydroxytamoxifen],1.36,1.16,0.795,–,–

Compound,Wnt reporter firefly/Renilla luciferase ratio (concentration: 0.1 uM),Wnt reporter firefly/Renilla luciferase ratio (concentration: 1 uM),Wnt reporter firefly/Renilla luciferase ratio (concentration: 10 uM),Wnt reporter firefly/Renilla luciferase ratio (concentration: 100 uM),Wnt reporter firefly/Renilla luciferase ratio (concentration: 0.01 uM)
Oc1ccccc1 [Phenol],0.93,1.28,1.19,1.35,–
CCSC(=O)N(CC(C)C)CC(C)C [Butylate],–,–,1.71,–,–
CS(=O)(=O)c1ccc([C@@H](C[C@H]2CCC(=O)C2)C(=O)Nc2cnccn2)cc1Cl [Piragliatin],1.03,0.959,1.02,1.3,–
c1ccc2c(c1)Cc1ccccc1-2 [Fluorene],1.18,1.07,1.28,1.41,–
Cc1oc(-c2ccccc2)nc1CCOc1cccc2c1ccn2CCC(=O)O,1.12,1.17,1.05,0.757,–
CCCCCCCCCCCC(=O)OC [Methyl dodecanoate],1.12,1.02,1.13,1.38,–
Fc1ccccc1[C@@H](F)CO[C@H]1CC[C@H](Nc2[nH]cnc3nncc2-3)CC1,1.04,1.08,0.826,0.32,–
CCCCc1oc2ccccc2c1C(=O)c1cc(I)c(OCCN(CC)CC)c(I)c1.Cl [Amiodarone hydrochloride],1.18,1.09,1,1.11,–
CC(C)CCO [Isopentyl alcohol],1.15,0.978,1.1,1.03,–
"CC(C)CCCCCCOC(=O)CCCCC(=O)OCCCCCCC(C)C [Hexanedioic acid, diisononyl ester]",0.869,0.964,1.24,1.25,–
O=C([N-]S(=O)(=O)/C=C/c1ccccc1)c1ccc(F)cc1Cl.[Na+],1.15,1.07,0.657,0.3,–
Cc1ccc(Cl)cc1 [4-Chlorotoluene],1.3,0.871,1.02,0.878,–
CC[C@H](NC(=O)c1cc(F)ccc1[N-]S(=O)(=O)c1cccc2cccnc12)c1ccccc1.[Na+],1.22,1.08,1.18,0.234,–
C[C@]12CC[C@@H]3c4ccc(O)cc4CC[C@H]3[C@@H]1CC[C@H]2O [17alpha-Estradiol],0.699,1.04,0.715,–,–
c1ccc(Nc2ccccc2)cc1 [Diphenylamine],1.08,1.19,1.18,1.24,1.05
C[C@]12C[C@H](O)[C@H]3[C@@H](CCC4=CC(=O)CC[C@@]43C)[C@@H]1CC[C@@H]2C(=O)CO [Corticosterone],1.12,1.15,1.13,0.318,–
[Cl-].[Li+],0.845,0.926,0.875,1.27,0.768
CC(=O)OC[C@H]1O[C@@](COC(C)=O)(O[C@H]2O[C@H](COC(C)=O)[C@@H](OC(C)=O)[C@H](OC(C)=O)[C@H]2OC(C)=O)[C@@H](OC(C)=O)[C@@H]1OC(C)=O [Sucrose octaacetate],1.11,1,1.08,1.08,–
CN(Cc1cnc2nc(N)nc(N)c2n1)c1ccc(C(=O)N[C@@H](CCC(=O)O)C(=O)O)cc1 [Methotrexate],0.309,–,0.383,0.459,–
CC(C)c1cccc(C(C)C)c1N1C(=O)c2ccc(O)cc2C1=O,1.19,1.17,0.259,–,–

# Ordered by molar mass (ascending): 3 of the compounds above.
Compound,Wnt reporter firefly/Renilla luciferase ratio (concentration: 0.1 uM),Wnt reporter firefly/Renilla luciferase ratio (concentration: 1 uM),Wnt reporter firefly/Renilla luciferase ratio (concentration: 10 uM),Wnt reporter firefly/Renilla luciferase ratio (concentration: 100 uM),Wnt reporter firefly/Renilla luciferase ratio (concentration: 0.01 uM)
CC(C)CCO [Isopentyl alcohol],1.15,0.978,1.1,1.03,–
Cc1ccc(Cl)cc1 [4-Chlorotoluene],1.3,0.871,1.02,0.878,–
Fc1ccccc1[C@@H](F)CO[C@H]1CC[C@H](Nc2[nH]cnc3nncc2-3)CC1,1.04,1.08,0.826,0.32,–
